According to patent publication US10745693B2, “Methods of designing programmable inducible promoters” (WISCONSIN ALUMNI RESEARCH FOUNDATION, priority 2017, dated 2020):
At least one compound was matched to its structure with a doubt left.

Test system: DesT
Assay: Induction assay of DesT-enriched promoter library driving GFP in E. coli DH10B (flow cytometer)
Type: cell-based, Pseudomonas aeruginosa
Settings: 250 uM stearate, over-night growth, E. coli DH10B population repressed by DesT

## CCCCCCCCCCCCCCCCCC(=O)O [stearate]
  Change of fluorescent intensity distribution on induction: overall increase in fluorescent intensity
